Results reported in publication PMC4493090.
Results are given in words; binding and its absence hold for the method and conditions named. Binding calls can cover weak binding; strength is not graded here.

B1: Hipk3 (156–541), two-hybrid prey (domain or fragment, UniProt Q9ERH7 156-541)
chain: TNMGNPVTVVTATTGSKQNCTSGEGDYQLVQHEVLCSMKNTYEVLDFLGRGTFGQVVKCWKRGTNEIVAIKILKNHPSYARQGQIEVSILARLSTENADEYNFVRAYECFQHRNHTCLVFEMLEQNLYDFLKQNKFSPLPLKVIRPVLQQVATALKKLKSLGLIHADLKPENIMLVDPVRQPYRVKVIDFGSASHVSKTVCSTYLQSRYYRAPEIILGLPFCEAIDMWSLGCVIAELFLGWPLYPGALEYDQIRYISQTQGLPGEQLLNVGTKSTRFFCRETDMSHSGWRLKTLEEHEAETGMKSKEARKYIFNSLDDIVHVNTVMDLEGGDLLAEKADRREFVNLLKKMLLIDADLRITPIETLNHPFVNMKHLLDFPHSNHVKS
B2: Smurf1 (199–383), two-hybrid prey (domain or fragment, UniProt Q9CUN6 199-383)
chain: ESPSQDQRLLVQRLRNPEVRGPLQTPQNRPHGHQSPELPEGYEQRTTVQGQVYFLHTQTGVSTWHDPRIPRDLNSVNCDELGPLPPGWEVRSTVSGRIYFVDHNNRTTQFTDPRLHHIMNHQCQLKEPSQPLQLPSEGSVEDEELPAQRYERDLVQKLKVLRHELSLQQPQAGHCRIEVSREEIF
B3: Isl1 (106–347), two-hybrid prey (domain or fragment, UniProt P61372 106-347)
chain: RCVACSRQLIPGDEFALREDGLFCRADHDVVERASLGAGDPLSPLHPARPLQMAAEPISARQPALRPHVHKQPEKTTRVRTVLNEKQLHTLRTCYAANPRPDALMKEQLVEMTGLSPRVIRVWFQNKRCKDKKRSIMMKQLQQQQPNDKTNIQGMTGTPMVAASPERHDGGLQANPVEVQSYQPPWKVLSDFALQSDIDQPAFQQLVNFSEGGPGSNSTGSEVASMSSQLPDTPNSMVASPI
B4: Spop (33–237), two-hybrid prey (domain or fragment, UniProt Q6ZWS8 33-237)
chain: SYMWTINNFSFCREEMGEVIKSSTFSSGANDKLKWCLRVNPKGLDEESKDYLSLYLLLVSCPKSEVRAKFKFSILNAKGEETKAMESQRAYRFVQGKDWGFKKFIRRDFLLDEANGLLPDDKLTLFCEVSVVQDSVNISGQNTMNMVKVPECRLADELGGLWENSRFTDCCLCVAGQEFQAHKAILAARSPVFSAMFEHEMEESK
B5: Kdm4c (721–800), two-hybrid prey (domain or fragment, UniProt Q8VCD7 721-800)
chain: VRVHASCYGVPSHEVCDGWLCARCKRNAWTAECCLCNLRGGALKQTKNNQWAHVICAVAVPEVRFTNVPERTQIDVDRIP
B6: Zmym2 (366–696), two-hybrid prey (domain or fragment, UniProt Q9CU65 366-696)
chain: PAPKKLCVMCKKDITTMKGTIVAQVDSSESFQEFCSTSCLSLYEDKQSPAKGALNKSRCTICGKLTEIRHEVSFKNMTHKLCSDHCFNRYRMANGLIMNCCEQCGEYLPSKGAGNNVLVVDGQQKRFCCQSCVTEYKQVGSHPSFLKEVRDHMQDSFLMQPEKYGKLTTCTGCRTQCRFFDMTQCIGPNGYMEPYCSTACMNSHKTKYAKSQSLGIICHFCKRNSLPQYQATMPDGKLYNFCNSSCVAKFQALSMQSSPNGQFVAPSDIQLKCNYCKNSFCSKPEILEWENKVHQFCSKTCSDDYKKLHCIVTYCEYCQEEKTLHETVNFS

Each binder was assayed against Glis3(2–500)-LexA fusion protein (mouse) (UniProt F6SGN4) (assay: two-hybrid; Hybrigenics screen; Glis3 N-terminus-LexA bait (pB27) against a murine pancreatic beta cell (βTC-TET) library in p6; medium without His, Leu, Trp, with 5.0 mM 3-aminotriazole).

binding	Binder
binds	B1
binds	B2
binds	B3
binds	B4
binds	B5
binds	B6
